Source: paper PMC11445230

Chains of the proteins cited; added tags and fusions are not shown. Lines headed by an entry give the natural chain unless they say otherwise; changes in a name come on top.
UniProt Q9Y653: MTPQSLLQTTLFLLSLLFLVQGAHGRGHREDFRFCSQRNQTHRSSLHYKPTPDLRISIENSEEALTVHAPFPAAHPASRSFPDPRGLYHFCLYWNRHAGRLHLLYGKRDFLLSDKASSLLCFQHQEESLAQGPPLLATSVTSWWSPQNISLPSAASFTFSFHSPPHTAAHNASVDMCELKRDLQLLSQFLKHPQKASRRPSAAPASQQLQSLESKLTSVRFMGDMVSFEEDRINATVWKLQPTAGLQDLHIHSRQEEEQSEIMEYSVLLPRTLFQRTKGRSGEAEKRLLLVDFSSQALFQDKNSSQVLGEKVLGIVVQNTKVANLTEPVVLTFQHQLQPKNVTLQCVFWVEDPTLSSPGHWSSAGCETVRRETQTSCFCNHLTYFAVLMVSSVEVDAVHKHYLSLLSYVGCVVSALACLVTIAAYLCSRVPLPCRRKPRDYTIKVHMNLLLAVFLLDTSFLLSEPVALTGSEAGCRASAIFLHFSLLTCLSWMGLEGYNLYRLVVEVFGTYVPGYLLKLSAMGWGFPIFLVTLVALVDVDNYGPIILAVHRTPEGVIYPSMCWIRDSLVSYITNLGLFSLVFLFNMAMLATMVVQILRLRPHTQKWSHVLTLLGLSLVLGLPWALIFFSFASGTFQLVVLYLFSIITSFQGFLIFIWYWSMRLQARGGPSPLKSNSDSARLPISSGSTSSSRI

Target: Purified recombinant GPR56 (GST pull-down) (UniProt Q9Y653)
Assay: pull-down; GST pull-down with purified recombinant GPR56; called a direct interaction; which partner carried GST and the source of TGFBR1 not stated

B1: TGFBR1 (GST pull-down) (receptor, UniProt P36897 34-503)
chain: LQCFCHLCTKDNFTCVTDGLCFVSVTETTDKVIHNSMCIAEIDLIPRDRPFVCAPSSKTGSVTTTYCCNQDHCNKIELPTTVKSSPGLGPVELAAVIAGPVCFVCISLMLMVYICHNRTVIHHRVPNEEDPSLDRPFISEGTTLKDLIYDMTTSGSGSGLPLLVQRTIARTIVLQESIGKGRFGEVWRGKWRGEEVAVKIFSSREERSWFREAEIYQTVMLRHENILGFIAADNKDNGTWTQLWLVSDYHEHGSLFDYLNRYTVTVEGMIKLALSTASGLAHLHMEIVGTQGKPAIAHRDLKSKNILVKKNGTCCIADLGLAVRHDSATDTIDIAPNHRVGTKRYMAPEVLDDSINMKHFESFKRADIYAMGLVFWEIARRCSIGGIHEDYQLPYYDLVPSDPSVEEMRKVVCEQKLRPNIPNRWQSCEALRVMAKIMRECWYANGAARLTALRIKKTLSQLSQQEGIKM
In the case of B1, the binding is reported as “binds”.

These are yes or no findings as the source states them, for the method shown. In cells and extracts the contact can be indirect. A result given as binding can be weak or reduced; the word gives no strength. Tags and fused reporters may be left off the sequences shown.
